According to doi:10.1101/2023.01.24.525315 (bioRxiv, 2023):
Results are given in words; binding and its absence hold for the method and conditions named. Some results given as binding are weak or reduced against the parent protein; the word gives no strength. For some of these results: Tags and fused reporters may be left off the sequences shown.

The chains behind the UniProt entries cited, without tags or fusion partners. Where a name states a change or a piece, a line headed by the entry shows the natural chain unless it says otherwise.
UniProt Q24572: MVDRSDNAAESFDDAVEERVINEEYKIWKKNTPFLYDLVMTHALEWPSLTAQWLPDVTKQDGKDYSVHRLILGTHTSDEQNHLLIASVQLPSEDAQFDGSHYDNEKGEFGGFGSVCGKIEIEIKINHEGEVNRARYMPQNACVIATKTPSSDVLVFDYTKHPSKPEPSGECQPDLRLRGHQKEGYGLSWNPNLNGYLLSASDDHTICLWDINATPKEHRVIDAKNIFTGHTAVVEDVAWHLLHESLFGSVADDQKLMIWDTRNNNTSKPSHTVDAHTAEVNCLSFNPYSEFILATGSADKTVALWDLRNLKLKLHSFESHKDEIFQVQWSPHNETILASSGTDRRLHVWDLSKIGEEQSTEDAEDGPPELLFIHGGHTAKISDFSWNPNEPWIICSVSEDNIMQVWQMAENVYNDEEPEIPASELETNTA

How the values were obtained:
[1] = biological target: T1, GST-CBM (Caf1-binding-motif, Ash1 1,582-1,616) (fly (Drosophila melanogaster)) (UniProt Q9VW15); assay: pull-down
T1 sequence: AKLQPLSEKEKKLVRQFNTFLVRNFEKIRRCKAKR

[2] = biological target: T2, GST-CBM E1591A (fly (Drosophila melanogaster)) (UniProt Q9VW15); assay: pull-down
T2 sequence: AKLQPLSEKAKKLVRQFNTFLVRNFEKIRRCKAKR

[3] = biological target: Ash1 1041-2226 (fly (Drosophila melanogaster)) (UniProt Q9VW15); assay: co-purification

Caf1 H4 binding pocket mutant (D362A/D365A) (from UniProt Q24572 1-430)
binding [1]: no binding (tested: 0.1mg/ml)

Fly Caf1 wild-type (from UniProt Q24572 1-430)
binding [2]: no binding (tested: 0.1mg/ml)

Caf1 full length (co-expressed in the AMC complex) (from UniProt Q24572 1-430)
binding [3]: binds

B1: Mrg15 full length (protein, UniProt Q9Y0I1 1-424)
chain: MGEVKPAKVENYSTGTDANTLFVDGERVLCFHGPLIYEAKVLKTKPDATPVEYYIHYAGWSKNWDEWVPENRVLKYNDDNVKRRQELARQCGERSKKDNKKGSAKAKKMEQMRNESRASTPSKDSNTSQSTASSTPTTSAGPGSKSEAGSTGTTTTNSTANSTTSRAHRKSTQSTPSTARPGTPSDKKEDPAAAETTEEEGPVAPKKKRMSEQRPSLTGSDVAEKPLPPTTTPSTPTTEPAPCVESEEAYAAKVEVKIKIPDELKHYLTDDWYAVVREHKLLELPAKVTVQQISEQYLAHKKSVKSTSASKEVAINDVLDGIVEYFNVMLGSQLLYKFERTQYADVMQKHPDTPLSELYGSFHLLRLFVRLGSMLSYSALDQQSMQNLLTHVQDFLKFLVKNSSIFFSMSNFINVDPEYVRNAQ
binding [3]: binds
